No constants are given. Whether binding was seen depends on the method and setting. Binding seen in cells or lysates may run through a third protein. Some entries that bind do so weakly or less than the wild type.
Biological target: p21 (Waf1/Cip1) (human) (UniProt P38936)
Experiment: co-IP; HepG2 cells co-transfected with plasmids expressing C/EBPα and p21; extracts three days after transfection; lysate incubated overnight at 4°C with rabbit polyclonal anti-p21 antibody and Protein G Mag Sepharose; immunoblot with anti-C/EBPα antibody

Protein sequences, listed by entry. Tags and fused reporters are not part of them.
UniProt P38936: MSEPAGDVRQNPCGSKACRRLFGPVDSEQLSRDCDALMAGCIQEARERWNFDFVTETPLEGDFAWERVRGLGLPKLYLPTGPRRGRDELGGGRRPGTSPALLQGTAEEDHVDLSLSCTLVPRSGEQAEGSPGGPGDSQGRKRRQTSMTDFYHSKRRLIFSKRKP
UniProt P49715: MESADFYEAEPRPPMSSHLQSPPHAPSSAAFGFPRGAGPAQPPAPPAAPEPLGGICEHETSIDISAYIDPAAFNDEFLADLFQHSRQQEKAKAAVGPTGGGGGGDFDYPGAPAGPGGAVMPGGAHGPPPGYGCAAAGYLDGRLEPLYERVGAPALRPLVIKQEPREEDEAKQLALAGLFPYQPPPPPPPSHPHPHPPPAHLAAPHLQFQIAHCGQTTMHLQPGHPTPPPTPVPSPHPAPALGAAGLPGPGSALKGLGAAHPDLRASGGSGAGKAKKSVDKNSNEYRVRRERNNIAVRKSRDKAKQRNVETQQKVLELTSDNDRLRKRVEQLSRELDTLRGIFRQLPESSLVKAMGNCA

binding: binds
Substance: CCAAT/enhancer-binding protein α (from UniProt P49715 1-358)
